Sequences of proteins named here, by UniProt entry; tags and fusion partners are left off.
UniProt Q6URW6: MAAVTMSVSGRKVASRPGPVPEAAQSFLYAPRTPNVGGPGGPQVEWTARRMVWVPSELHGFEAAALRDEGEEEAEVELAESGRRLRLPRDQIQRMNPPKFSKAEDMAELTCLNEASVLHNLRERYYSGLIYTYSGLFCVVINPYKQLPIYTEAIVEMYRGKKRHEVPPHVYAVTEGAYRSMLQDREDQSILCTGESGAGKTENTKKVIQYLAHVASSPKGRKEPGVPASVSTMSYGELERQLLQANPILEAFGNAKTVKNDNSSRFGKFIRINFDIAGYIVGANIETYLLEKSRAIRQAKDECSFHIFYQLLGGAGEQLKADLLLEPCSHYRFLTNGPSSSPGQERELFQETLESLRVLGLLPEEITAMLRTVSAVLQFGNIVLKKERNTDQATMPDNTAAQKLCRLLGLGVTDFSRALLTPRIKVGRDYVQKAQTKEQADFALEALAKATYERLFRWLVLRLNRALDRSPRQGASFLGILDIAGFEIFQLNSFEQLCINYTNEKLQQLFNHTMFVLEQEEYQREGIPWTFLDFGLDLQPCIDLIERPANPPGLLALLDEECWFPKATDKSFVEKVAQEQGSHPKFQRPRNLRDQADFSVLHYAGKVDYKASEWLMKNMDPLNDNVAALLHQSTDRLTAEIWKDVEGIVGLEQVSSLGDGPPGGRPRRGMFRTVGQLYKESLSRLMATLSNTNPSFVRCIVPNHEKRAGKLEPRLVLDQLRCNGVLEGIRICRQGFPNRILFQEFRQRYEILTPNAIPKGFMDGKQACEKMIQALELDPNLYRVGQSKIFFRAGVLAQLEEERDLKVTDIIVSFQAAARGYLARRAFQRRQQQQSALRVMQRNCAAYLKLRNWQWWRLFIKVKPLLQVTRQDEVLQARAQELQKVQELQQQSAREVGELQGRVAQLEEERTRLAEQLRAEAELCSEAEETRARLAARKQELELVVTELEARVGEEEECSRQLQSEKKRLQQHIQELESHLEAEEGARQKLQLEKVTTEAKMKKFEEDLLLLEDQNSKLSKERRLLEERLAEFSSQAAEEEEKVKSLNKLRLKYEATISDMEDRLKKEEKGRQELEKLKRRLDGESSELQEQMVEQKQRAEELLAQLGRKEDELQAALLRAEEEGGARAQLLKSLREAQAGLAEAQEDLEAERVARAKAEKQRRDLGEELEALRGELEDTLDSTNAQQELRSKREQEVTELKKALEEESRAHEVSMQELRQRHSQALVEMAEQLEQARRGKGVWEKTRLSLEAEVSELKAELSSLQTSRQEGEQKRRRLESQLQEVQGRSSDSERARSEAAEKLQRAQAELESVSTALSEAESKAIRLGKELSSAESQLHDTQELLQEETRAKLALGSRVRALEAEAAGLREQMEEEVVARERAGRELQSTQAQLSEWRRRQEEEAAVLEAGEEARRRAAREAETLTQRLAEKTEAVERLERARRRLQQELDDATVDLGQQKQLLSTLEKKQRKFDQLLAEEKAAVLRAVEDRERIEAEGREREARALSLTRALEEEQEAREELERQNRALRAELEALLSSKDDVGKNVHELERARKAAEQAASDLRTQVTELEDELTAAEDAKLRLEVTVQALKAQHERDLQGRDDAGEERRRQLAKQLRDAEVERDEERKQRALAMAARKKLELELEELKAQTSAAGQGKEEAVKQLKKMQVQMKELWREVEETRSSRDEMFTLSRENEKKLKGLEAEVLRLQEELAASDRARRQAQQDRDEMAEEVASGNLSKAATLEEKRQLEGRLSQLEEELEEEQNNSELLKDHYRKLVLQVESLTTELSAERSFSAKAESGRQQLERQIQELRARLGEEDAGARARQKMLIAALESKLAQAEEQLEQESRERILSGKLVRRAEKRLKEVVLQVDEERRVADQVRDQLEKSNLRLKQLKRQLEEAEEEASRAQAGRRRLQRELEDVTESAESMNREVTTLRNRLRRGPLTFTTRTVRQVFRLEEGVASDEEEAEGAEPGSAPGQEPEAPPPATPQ

In publication PMC12365319:

T1: F-box/LRR-repeat protein 12 (mouse (endogenous in SIM-A9)) (UniProt Q9EPX5)
T1 sequence: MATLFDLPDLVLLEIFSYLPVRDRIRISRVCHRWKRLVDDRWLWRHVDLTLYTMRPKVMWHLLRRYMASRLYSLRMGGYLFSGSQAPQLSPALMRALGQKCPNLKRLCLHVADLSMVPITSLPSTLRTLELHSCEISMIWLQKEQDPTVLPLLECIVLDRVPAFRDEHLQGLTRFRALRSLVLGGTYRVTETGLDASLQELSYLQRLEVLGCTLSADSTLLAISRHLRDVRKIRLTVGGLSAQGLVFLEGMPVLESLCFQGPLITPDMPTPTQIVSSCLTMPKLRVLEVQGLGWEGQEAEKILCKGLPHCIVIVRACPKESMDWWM


What follows are molecules tested against T1, F-box/LRR-repeat protein 12 (mouse (endogenous in SIM-A9)) (assay: affinity purification with mass spectrometry; whole-cell lysates of SIM-A9 microglia (wild-type, and treated with 200 ng/mL MBP for 4 days) incubated with 10 ug rabbit anti-Fbxl12 antibody for 3 h at 4 C; eluted proteins digested with trypsin, LC-MS/MS).

Row | binding | Molecule
1 | binds | Myosin heavy chain 14 (from UniProt Q6URW6 1-2000)
2 | binds | MYL10 (protein, UniProt Q62082 1-202) MGQSSLDHGVQGPVAGTGDFGPLKEATATGFISCAQAPRRARKRVEGTASSNVFSMFDQSQIQEFKEAFTIMDQNRDGFIDKEDLRDTFAALGRINVKNEELEAMVKEAPGPINFTVFLTMFGEKLKGTDPEETILHAFKVFDTEGKGFVKADFIKEKLMTQADRFSEEEVKQMFAAFPPDVCGNLDYRNLCYVITHGEEKD

Further lines, the molecule ahead of its results:

Row | Molecule | binding
3 | MYL6 (protein, UniProt Q60605 1-151) MCDFTEDQTAEFKEAFQLFDRTGDGKILYSQCGDVMRALGQNPTNAEVLKVLGNPKSDEMNVKVLDFEHFLPMLQTVAKNKDQGTYEDYVEGLRVFDKEGNGTVMGAEIRHVLVTLGEKMTEEEVEMLVAGHEDSNGCINYEAFVRHILSG | binds
4 | MYL6b (protein, UniProt Q8CI43 1-207) MPPKKDAPVKKPAGPSISKPAAKSTPGTPLAKAKAEPAAPQAPAKSQEPPVDLSKVVIEFNKDQLEEFREAFELFDRVGDGKILYSQCGDLMRALGQNPTNAEVLKVLGNPKNEELKSRRVDFETFLPMLQAVAKNRDQGTYEDYLEGLRVFDKEGNGKVMGAELRHVLTTLGEKMTEEEVETVLAGHEDSNGCINYEAFLKHILSL | binds

These are yes or no findings as the source states them, for the method shown. Binding seen in cells or lysates may run through a third protein. These calls come from enrichment with a bait or labelling near it, and not all partners need be listed.
